These are yes or no findings as the source states them, for the method shown.
Target: Human Nova2-KH3 fragment (residues 406–492) (human) (UniProt Q9UNW9)
Experiment: AUC; sedimentation velocity; 60,000 r.p.m, 4°C, absorbance detection; approximately 43 µM FILIA-N, 84 µM Nova2-KH3; 50 mM Tris pH 8.0, 200 mM NaCl, 1 mM TCEP; both purified

B1: Human Nova2-KH3 fragment (residues 406–492) (domain or fragment, UniProt Q9UNW9 406-492)
chain: KELVEIAVPENLVGAILGKGGKTLVEYQELTGARIQISKKGEFLPGTRNRRVTITGSPAATQAAQYLISQRVTYEQGVRASNPQKVG
Q: How did the binding turn out when B1 was run?
A: no binding (tested: 84 µM)

— article PMC3261892
